Measurements as given in PMC12643531.
Read-outs that look alike come from different tables or passages of the source. These are yes or no findings as the source states them, for the method shown. In cells and extracts the contact can be indirect. Here binding means that the protein was enriched with, or labelled near, the bait; the list need not be complete. Tags and fused reporters may be left off the sequences shown. Blank lines part the entries; values can stand above or below the molecule they belong to.

Chains of the proteins cited; added tags and fusions are not shown.
UniProt P35631: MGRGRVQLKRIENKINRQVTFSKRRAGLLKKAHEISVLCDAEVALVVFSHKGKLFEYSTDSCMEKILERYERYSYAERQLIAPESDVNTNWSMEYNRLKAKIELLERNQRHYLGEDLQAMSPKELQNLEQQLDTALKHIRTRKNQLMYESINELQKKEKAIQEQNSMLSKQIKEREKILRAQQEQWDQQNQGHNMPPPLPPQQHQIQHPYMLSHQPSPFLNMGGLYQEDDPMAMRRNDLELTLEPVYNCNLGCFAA
UniProt Q8W234: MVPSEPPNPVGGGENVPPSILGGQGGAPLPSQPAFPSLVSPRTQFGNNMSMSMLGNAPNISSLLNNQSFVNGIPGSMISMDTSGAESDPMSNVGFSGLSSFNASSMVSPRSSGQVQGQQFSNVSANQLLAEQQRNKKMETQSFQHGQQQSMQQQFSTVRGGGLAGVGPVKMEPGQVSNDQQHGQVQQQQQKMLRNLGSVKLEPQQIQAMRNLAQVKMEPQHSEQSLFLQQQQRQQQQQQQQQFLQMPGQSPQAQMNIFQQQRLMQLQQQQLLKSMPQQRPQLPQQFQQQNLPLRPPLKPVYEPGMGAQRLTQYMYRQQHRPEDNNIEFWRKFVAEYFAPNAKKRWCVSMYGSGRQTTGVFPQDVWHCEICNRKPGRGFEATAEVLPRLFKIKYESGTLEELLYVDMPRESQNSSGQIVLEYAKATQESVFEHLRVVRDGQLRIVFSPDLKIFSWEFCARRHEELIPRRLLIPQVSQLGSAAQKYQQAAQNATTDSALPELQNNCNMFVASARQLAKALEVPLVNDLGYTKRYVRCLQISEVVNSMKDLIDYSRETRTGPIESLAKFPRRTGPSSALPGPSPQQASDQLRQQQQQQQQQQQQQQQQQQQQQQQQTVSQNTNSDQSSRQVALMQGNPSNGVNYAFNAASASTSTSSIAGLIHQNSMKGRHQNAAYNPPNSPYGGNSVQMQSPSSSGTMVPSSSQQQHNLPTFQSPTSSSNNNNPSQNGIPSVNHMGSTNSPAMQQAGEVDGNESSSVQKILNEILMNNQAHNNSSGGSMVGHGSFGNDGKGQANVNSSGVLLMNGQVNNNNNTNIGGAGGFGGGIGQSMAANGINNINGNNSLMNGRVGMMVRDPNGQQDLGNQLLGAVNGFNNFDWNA
UniProt Q9LE42: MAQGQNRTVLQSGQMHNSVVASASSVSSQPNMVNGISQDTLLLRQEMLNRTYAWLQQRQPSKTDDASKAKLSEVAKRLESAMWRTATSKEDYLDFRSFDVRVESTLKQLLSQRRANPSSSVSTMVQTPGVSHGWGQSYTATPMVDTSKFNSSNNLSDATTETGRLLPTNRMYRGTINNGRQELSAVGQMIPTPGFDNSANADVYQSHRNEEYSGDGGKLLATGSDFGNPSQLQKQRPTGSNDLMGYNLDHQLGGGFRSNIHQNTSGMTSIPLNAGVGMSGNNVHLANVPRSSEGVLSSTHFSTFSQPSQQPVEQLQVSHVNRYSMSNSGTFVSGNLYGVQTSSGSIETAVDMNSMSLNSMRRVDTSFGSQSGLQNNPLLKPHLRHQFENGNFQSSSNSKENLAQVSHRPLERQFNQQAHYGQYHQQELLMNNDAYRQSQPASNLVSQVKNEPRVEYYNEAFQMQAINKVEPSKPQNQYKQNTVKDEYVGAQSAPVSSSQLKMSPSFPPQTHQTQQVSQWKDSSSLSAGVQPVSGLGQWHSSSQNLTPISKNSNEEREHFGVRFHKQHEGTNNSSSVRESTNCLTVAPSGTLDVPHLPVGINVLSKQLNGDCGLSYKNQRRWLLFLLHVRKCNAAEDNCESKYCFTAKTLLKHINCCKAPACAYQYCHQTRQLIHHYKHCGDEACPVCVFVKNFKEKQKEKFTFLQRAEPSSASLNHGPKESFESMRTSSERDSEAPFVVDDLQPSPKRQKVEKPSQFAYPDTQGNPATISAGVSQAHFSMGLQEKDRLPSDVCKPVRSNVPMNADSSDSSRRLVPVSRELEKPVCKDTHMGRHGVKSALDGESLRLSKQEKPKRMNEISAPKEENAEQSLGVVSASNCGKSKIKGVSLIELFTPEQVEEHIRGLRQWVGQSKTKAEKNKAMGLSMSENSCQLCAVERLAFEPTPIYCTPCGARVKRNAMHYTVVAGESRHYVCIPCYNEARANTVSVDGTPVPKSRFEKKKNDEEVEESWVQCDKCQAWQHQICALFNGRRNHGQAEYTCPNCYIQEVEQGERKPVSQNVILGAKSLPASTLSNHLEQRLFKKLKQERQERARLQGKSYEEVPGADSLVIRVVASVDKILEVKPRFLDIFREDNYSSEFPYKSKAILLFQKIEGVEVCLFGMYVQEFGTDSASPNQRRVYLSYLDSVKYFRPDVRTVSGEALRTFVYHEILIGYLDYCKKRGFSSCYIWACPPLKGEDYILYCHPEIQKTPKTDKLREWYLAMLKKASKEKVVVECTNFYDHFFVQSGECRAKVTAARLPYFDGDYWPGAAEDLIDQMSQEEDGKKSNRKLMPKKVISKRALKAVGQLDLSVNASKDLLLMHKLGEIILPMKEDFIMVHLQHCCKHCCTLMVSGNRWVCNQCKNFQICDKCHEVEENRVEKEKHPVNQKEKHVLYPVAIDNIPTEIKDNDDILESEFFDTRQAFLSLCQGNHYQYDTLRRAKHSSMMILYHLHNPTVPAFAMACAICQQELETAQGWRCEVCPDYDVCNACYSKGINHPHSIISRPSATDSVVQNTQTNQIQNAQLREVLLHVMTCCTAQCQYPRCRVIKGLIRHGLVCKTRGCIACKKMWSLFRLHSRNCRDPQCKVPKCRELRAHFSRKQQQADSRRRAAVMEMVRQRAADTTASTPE

Assays:
[1] = molecular target: T1, LEUNIG_HOMOLOG (LUH)-GFP (Arabidopsis thaliana) (UniProt O48847); assay: affinity purification with mass spectrometry; LUH-GFP precipitated with anti-GFP micro beads (4°C, 1 h) from nuclear protein extracts of FIS inflorescences at 0, 2, 4 and 8 DAI; LC-MS/MS; enrichment against input, P < 0.05 and FC > 4; three biological replicates
T1 sequence: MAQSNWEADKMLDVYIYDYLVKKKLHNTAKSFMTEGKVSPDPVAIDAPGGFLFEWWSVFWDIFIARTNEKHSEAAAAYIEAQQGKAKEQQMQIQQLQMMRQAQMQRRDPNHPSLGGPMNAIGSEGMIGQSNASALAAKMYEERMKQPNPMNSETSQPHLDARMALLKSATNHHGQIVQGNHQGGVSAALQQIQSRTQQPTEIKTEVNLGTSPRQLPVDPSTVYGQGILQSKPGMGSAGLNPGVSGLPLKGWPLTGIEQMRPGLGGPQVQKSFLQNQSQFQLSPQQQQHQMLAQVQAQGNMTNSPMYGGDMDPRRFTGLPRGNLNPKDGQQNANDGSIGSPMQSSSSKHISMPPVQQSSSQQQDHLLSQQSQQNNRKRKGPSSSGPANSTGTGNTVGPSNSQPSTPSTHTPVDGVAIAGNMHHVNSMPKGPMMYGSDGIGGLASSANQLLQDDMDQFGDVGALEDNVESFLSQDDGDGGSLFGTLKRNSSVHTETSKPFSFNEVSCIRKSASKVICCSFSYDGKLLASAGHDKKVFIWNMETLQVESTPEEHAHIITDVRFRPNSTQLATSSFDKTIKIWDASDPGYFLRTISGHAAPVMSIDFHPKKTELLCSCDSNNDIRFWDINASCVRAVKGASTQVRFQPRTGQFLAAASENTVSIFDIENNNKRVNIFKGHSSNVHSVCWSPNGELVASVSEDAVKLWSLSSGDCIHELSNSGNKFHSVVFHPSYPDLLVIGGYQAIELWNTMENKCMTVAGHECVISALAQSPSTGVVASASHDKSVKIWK

[2] = molecular target: T1, LEUNIG_HOMOLOG (LUH)-GFP (Arabidopsis thaliana); assay: as above; remark: listed apart in the source

binding [2]: binds
B1: KNOTTED-LIKE FROM ARABIDOPSIS THALIANA (KNAT1) (protein, UniProt P46639 1-398)
chain: MEEYQHDNSTTPQRVSFLYSPISSSNKNDNTSDTNNNNNNNNSSNYGPGYNNTNNNNHHHQHMLFPHMSSLLPQTTENCFRSDHDQPNNNNNPSVKSEASSSRINHYSMLMRAIHNTQEANNNNNDNVSDVEAMKAKIIAHPHYSTLLQAYLDCQKIGAPPDVVDRITAARQDFEARQQRSTPSVSASSRDPELDQFMEAYCDMLVKYREELTRPIQEAMEFIRRIESQLSMLCQSPIHILNNPDGKSDNMGSSDEEQENNSGGETELPEIDPRAEDRELKNHLLKKYSGYLSSLKQELSKKKKKGKLPKEARQKLLTWWELHYKWPYPSESEKVALAESTGLDQKQINNWFINQRKRHWKPSEDMQFMVMDGLQHPHHAALYMDGHYMGDGPYRLGP

binding [2]: binds
B2: GRF1-… FACTOR 1 (GIF1) (protein, UniProt Q8L8A5 1-210)
chain: MQQHLMQMQPMMAGYYPSNVTSDHIQQYLDENKSLILKIVESQNSGKLSECAENQARLQRNLMYLAAIADSQPQPPSVHSQYGSAGGGMIQGEGGSHYLQQQQATQQQQMTQQSLMAARSSMLYAQQQQQQQPYATLQHQQLHHSQLGMSSSSGGGGSSGLHILQGEAGGFHDFGRGKPEMGSGGGGEGRGGSSGDGGETLYLKSSDDGN

binding [2]: binds
B4: LEUNIG (LUG) (protein, UniProt Q9FUY2 1-931)
chain: MSQTNWEADKMLDVYIHDYLVKRDLKATAQAFQAEGKVSSDPVAIDAPGGFLFEWWSVFWDIFIARTNEKHSEVAASYIETQMIKAREQQLQQSQHPQVSQQQQQQQQQQIQMQQLLLQRAQQQQQQQQQQHHHHQQQQQQQQQQQQQQQQQQQQHQNQPPSQQQQQQSTPQHQQQPTPQQQPQRRDGSHLANGSANGLVGNNSEPVMRQNPGSGSSLASKAYEERVKMPTQRESLDEAAMKRFGDNVGQLLDPSHASILKSAAASGQPAGQVLHSTSGGMSPQVQTRNQQLPGSAVDIKSEINPVLTPRTAVPEGSLIGIPGSNQGSNNLTLKGWPLTGFDQLRSGLLQQQKPFMQSQSFHQLNMLTPQHQQQLMLAQQNLNSQSVSEENRRLKMLLNNRSMTLGKDGLGSSVGDVLPNVGSSLQPGGSLLPRGDTDMLLKLKMALLQQQQQNQQQGGGNPPQPQPQPQPLNQLALTNPQPQSSNHSIHQQEKLGGGGSITMDGSISNSFRGNEQVLKNQSGRKRKQPVSSSGPANSSGTANTAGPSPSSAPSTPSTHTPGDVISMPNLPHSGGSSKSMMMFGTEGTGTLTSPSNQLADMDRFVEDGSLDDNVESFLSQEDGDQRDAVTRCMDVSKGFTFTEVNSVRASTTKVTCCHFSSDGKMLASAGHDKKAVLWYTDTMKPKTTLEEHTAMITDIRFSPSQLRLATSSFDKTVRVWDADNKGYSLRTFMGHSSMVTSLDFHPIKDDLICSCDNDNEIRYWSINNGSCTRVYKGGSTQIRFQPRVGKYLAASSANLVNVLDVETQAIRHSLQGHANPINSVCWDPSGDFLASVSEDMVKVWTLGTGSEGECVHELSCNGNKFQSCVFHPAYPSLLVIGCYQSLELWNMSENKTMTLPAHEGLITSLAVSTATGLVASASHDKLVKLWK

More lines, now with the values behind:

Molecule: APETALA1 (AP1), from FIS inflorescences (from UniProt P35631 1-256)
binding [1]: binds

Molecule: …3 (SEP3), endogenous (from UniProt O22456 1-251)
binding [1]: binds

Molecule: SEUSS (SEU) (from UniProt Q8W234 1-877)
binding [1]: binds

Molecule: HAC5 (from UniProt Q9LE42 1-1670) (enzyme)
binding [1]: binds

B3: AINTEGUMENTA-like 6 (AIL6) (protein, UniProt Q52QU2 1-581)
chain: MMAPMTNWLTFSLSPMEMLRSSDQSQFVSYDASSAASSSPYLLDNFYGWSNQKPQEFFKEEAQLAAAASMADSTILTTFVDPQSHHSQNHIPKLEDFLGDSSSIVRYSDNSQTDTQDSSLTQIYDPRHHHNQTGFYSDHHDFKTMAGFQSAFSTNSGSEVDDSASIGRTHLAGDYLGHVVESSGPELGFHGGSTGALSLGVNVNNNTNHRNDNDNHYRGNNNGERINNNNNNDNEKTDSEKEKAVVAVETSDCSNKKIADTFGQRTSIYRGVTRHRWTGRYEAHLWDNSCRREGQARKGRQGGYDKEDKAARAYDLAALKYWNATATTNFPITNYSKEVEEMKHMTKQEFIASLRRKSSGFSRGASIYRGVTRHHQQGRWQARIGRVAGNKDLYLGTFATEEEAAEAYDIAAIKFRGINAVTNFEMNRYDVEAIMKSALPIGGAAKRLKLSLEAAASSEQKPILGHHQLHHFQQQQQQQQLQLQSSPNHSSINFALCPNSAVQSQQIIPCGIPFEAAALYHHHQQQQQHQQQQQQQNFFQHFPANAASDSTGSNNNSNVQGTMGLMAPNPAEFFLWPNQSY
binding [2]: binds
